Laboratory results taken from PMC9798675.
No constants are given. Whether binding was seen depends on the method and setting. For some assays here: Binding seen in cells or lysates may run through a third protein. Some entries that bind do so weakly or less than the wild type.

The chains behind the UniProt entries cited, without tags or fusion partners. Residues count along the entry.
UniProt P16234, residues 24-1089: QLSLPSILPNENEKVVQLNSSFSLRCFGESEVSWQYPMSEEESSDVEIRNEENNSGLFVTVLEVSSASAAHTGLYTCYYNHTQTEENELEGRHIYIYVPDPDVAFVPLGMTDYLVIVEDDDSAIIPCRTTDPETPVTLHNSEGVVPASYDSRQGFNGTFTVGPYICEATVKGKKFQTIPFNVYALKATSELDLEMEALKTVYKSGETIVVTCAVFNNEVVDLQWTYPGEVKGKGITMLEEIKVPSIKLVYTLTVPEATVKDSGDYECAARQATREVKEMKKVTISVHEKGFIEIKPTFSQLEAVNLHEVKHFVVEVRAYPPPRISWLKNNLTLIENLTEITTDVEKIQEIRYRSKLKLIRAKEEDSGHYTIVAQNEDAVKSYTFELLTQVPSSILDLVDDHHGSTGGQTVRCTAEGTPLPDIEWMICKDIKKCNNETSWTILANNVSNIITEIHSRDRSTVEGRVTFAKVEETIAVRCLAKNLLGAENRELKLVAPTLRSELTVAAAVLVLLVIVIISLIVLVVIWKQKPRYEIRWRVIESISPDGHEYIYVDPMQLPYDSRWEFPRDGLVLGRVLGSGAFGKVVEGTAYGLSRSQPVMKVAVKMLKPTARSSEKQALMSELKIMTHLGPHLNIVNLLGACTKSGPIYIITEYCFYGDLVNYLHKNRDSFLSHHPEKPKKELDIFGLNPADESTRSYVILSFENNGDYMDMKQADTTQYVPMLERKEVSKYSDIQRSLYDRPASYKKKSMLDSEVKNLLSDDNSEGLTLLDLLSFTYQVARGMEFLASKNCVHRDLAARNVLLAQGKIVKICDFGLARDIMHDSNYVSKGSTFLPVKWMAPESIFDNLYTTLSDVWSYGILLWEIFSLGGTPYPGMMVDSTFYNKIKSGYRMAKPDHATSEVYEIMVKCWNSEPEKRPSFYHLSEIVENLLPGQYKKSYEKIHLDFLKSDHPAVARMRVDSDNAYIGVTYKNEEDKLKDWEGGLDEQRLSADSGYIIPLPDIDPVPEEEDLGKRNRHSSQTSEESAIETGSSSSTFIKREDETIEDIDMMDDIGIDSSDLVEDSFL

T1: Sushi domain-containing protein 4 (human SUSD4) (human) (UniProt Q5VX71)
T1 sequence: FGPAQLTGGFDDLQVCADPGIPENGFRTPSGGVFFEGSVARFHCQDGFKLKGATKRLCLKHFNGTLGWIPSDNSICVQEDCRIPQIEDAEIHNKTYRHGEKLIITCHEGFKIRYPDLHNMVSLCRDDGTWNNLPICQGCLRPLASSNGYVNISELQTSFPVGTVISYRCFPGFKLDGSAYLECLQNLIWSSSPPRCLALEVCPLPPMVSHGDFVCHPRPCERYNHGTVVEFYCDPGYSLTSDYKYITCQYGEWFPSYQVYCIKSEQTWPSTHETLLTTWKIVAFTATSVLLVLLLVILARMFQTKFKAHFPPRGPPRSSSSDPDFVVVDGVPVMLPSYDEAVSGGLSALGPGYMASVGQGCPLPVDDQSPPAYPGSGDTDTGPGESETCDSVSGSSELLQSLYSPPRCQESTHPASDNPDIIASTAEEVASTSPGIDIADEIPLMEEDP

B1: Sushi domain-containing protein 4 (human SUSD4) (protein, UniProt Q5VX71 42-490)
chain: T1 sequence

Legend:
[1] = target: T1, Sushi domain-containing protein 4 (human SUSD4) (human); experiment: co-IP; 500 ug total protein of NP-40 lysates of BT-20 and MDA-MB-468 cells stably expressing SUSD4, overnight with 5 ug anti-SUSD4 antibody, protein G Dynabeads, three washes with NP40 buffer
[2] = target: Epithelial Growth Factor Receptor (EGFR) (human (endogenous in BT-20 and MDA-MB-468)) (UniProt P00533); experiment: proximity ligation; BT-20 and MDA-MB-468 cells stably expressing SUSD4; fixed with 4% paraformaldehyde, permeabilised (0.1% Triton X-100), primary antibodies 1 h, Duolink or NaveniFlex kit, confocal microscopy
[3] = target: Platelet-derived growth factor receptor alpha (PDGFRα) (human (endogenous in BT-20 and MDA-MB-468)) (UniProt P16234); experiment: as above
[4] = target: Epithelial Growth Factor Receptor (EGFR) (human (endogenous in BT-20 and MDA-MB-468)) (UniProt P00533); experiment: ELISA; sandwich ELISA: anti-EGFR capture antibody (200 ng) coated on MaxiSorp plates, 600 ug total NP40 cell lysate of SUSD4-expressing BT-20 or MDA-MB-468 cells overnight at 4 °C, detection with anti-SUSD4 (130 ng)
[5] = target: Platelet-derived growth factor receptor alpha (PDGFRα) (human (endogenous in BT-20 and MDA-MB-468)) (UniProt P16234); experiment: ELISA; sandwich ELISA: anti-PDGFR capture antibody (100 ng) coated on MaxiSorp plates, 1100 ug total NP40 cell lysate of SUSD4-expressing BT-20 cells overnight at 4 °C, detection with anti-SUSD4 (130 ng); also with lysates of CRISPR/Cas9 EGFR knockout BT-20 cells expressing SUSD4

Molecule | binding [1] | binding [2] | binding [3] | binding [4] | binding [5]
Epithelial Growth Factor Receptor (EGFR) (from UniProt P00533 25-1210) | binds |  |  |  | 
B1 |  | binds | binds | binds | binds
